Measurements reported in PubChem BioAssay AID602196 (INSERM, 2012)
Shown is an unselected part of about 23,000 deposited reagents. Over the whole deposit, 455 (2%) are marked active. 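Active includes both protection and sensitisation; some change values fall well beyond the stated -50 to +50 range.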 Reagents against one gene are numbered here. Reagent sequences are not shown. Not stated in the record: the amount of reagent.

Purpose: 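Knock-downs that protect lung cancer cells from cisplatin or sensitise them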
Cells: human A549 lung cancer cells
Reagent: siRNA pair against human genes
Time to read-out: 48 h transfection before cisplatin; time from cisplatin to read-out not stated
Challenge: cisplatin at a dose killing half of control-siRNA cells; exact dose and duration not given
Measurement: 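Shift in cisplatin death relative to control siRNA, from -50 (all cells die) to +50 (no cells die); siRNAs harmful on their own scored 0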
Scale: two-siRNA summed score (-2 to +2): higher = both siRNAs protect from cisplatin killing; -2 means both sensitise; mean protection from cisplatin (shift in death) and protection from cisplatin (shift in death), siRNA C and protection from cisplatin (shift in death), siRNA D: higher = protection from cisplatin killing
Call rule: 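siRNAs harmful alone (LDH or WST-1) get 0; others get +1 for less and -1 for more cisplatin killing; genes are active when the two siRNAs give the same sign, summing to ±2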
Calls: active = both siRNAs shift cisplatin killing the same way; inactive = no consistent shift, or siRNA harmful alone

gene symbol | reagent no. | two-siRNA summed score (-2 to +2) | mean protection from cisplatin (shift in death) (%) | protection from cisplatin (shift in death), siRNA C (%) | protection from cisplatin (shift in death), siRNA D (%) | call
ATF5 | 1 | 0 | 5.2 | 4 | 6.3 | inactive
MTSS1 | 1 | 0 | 2.6 | -7.6 | 12.7 | inactive
RAMP1 | 1 | -1 | -17.8 | -32.1 | -3.6 | inactive
BRICD5 | 1 | 0 | 8.2 | 10.9 | 5.5 | inactive
ECE2 | 1 | 0 | -19.8 | -21 | -18.5 | inactive
ECE2 | 2 | 0 | 1.6 | 0.9 | 2.2 | inactive
B4GALNT3 | 1 | 0 | -12.5 | -18.5 | -6.6 | inactive
SPAG11B | 1 | 1 | 12 | 16.8 | 7.2 | inactive
LINC02875 | 1 | 1 | 21.4 | 32.8 | 9.9 | inactive
LOC100287792 | 1 | 0 | 7.5 | 7.9 | 7.1 | inactive
ZFAND3 | 1 | 0 | 9 | 12.9 | 5.1 | inactive
FNTB | 1 | 0 | -3.4 | -13.4 | 6.7 | inactive
KIAA0232 | 1 | 1 | 20 | 19.5 | 20.5 | inactive
CRYGS | 1 | -1 | -13.9 | -10.8 | -16.9 | inactive
MPHOSPH10 | 1 | 1 | 7.8 | 9.3 | 6.4 | inactive
AMER1 | 1 | -1 | -5 | 8.8 | -18.7 | inactive
RTN4R | 1 | 1 | 11.6 | 29.2 | -6 | inactive
OAZ1 | 1 | 0 | -1.8 | 0.2 | -3.7 | inactive

The list goes on, starting with the last 2 of the part before.
gene symbol | reagent no. | two-siRNA summed score (-2 to +2) | mean protection from cisplatin (shift in death) (%) | protection from cisplatin (shift in death), siRNA C (%) | protection from cisplatin (shift in death), siRNA D (%) | call
RTN4R | 1 | 1 | 11.6 | 29.2 | -6 | inactive
OAZ1 | 1 | 0 | -1.8 | 0.2 | -3.7 | inactive
LOC401197 | 1 | 0 | 8.3 | 9.9 | 6.8 | inactive
GUCA1C | 1 | 1 | 9.5 | -0.3 | 19.3 | inactive
MLC1 | 1 | 0 | -0.4 | 1.2 | -2.1 | inactive
EEPD1 | 1 | 0 | -3.1 | -6.8 | 0.6 | inactive
CDC42EP1 | 1 | 0 | 4.8 | 14 | -4.5 | inactive
PLPP3 | 1 | 0 | 1.5 | 9.6 | -6.5 | inactive
OR52A1 | 1 | 0 | 3.3 | 6.5 | 0.1 | inactive
PPCDC | 1 | 0 | 1.8 | 8.4 | -4.9 | inactive
FEZ1 | 1 | 1 | 5.2 | 15.8 | -5.3 | inactive
RRP1 | 1 | 0 | 5.9 | -3.9 | 15.7 | inactive
LOC340843 | 1 | 0 | 1.1 | 5.1 | -2.9 | inactive
LOC440491 | 1 | 1 | 12.8 | 10.7 | 15 | inactive
LOC440056 | 1 | 1 | 20.6 | 2.6 | 38.6 | inactive
LRRC75A | 1 | 1 | 9.8 | -8.8 | 28.4 | inactive
KREMEN2 | 1 | -1 | -16.5 | -14.6 | -18.5 | inactive
PDCD2 | 1 | 1 | 16.3 | 9.1 | 23.4 | inactive
UBE3A | 1 | 0 | 9 | 9.7 | 8.3 | inactive
MMD2 | 1 | 0 | 5 | -6 | 16.1 | inactive
TFCP2L1 | 1 | 0 | 3 | -2.4 | 8.4 | inactive
CEBPE | 1 | 0 | 9.6 | 7.6 | 11.7 | inactive
ST6GALNAC6 | 1 | 0 | -2.9 | 2.1 | -7.8 | inactive
